One substance from publication PMC12752504 can be followed below.

Sequences of proteins named here, by UniProt entry; tags and fusion partners are left off.
UniProt Q8NFD5: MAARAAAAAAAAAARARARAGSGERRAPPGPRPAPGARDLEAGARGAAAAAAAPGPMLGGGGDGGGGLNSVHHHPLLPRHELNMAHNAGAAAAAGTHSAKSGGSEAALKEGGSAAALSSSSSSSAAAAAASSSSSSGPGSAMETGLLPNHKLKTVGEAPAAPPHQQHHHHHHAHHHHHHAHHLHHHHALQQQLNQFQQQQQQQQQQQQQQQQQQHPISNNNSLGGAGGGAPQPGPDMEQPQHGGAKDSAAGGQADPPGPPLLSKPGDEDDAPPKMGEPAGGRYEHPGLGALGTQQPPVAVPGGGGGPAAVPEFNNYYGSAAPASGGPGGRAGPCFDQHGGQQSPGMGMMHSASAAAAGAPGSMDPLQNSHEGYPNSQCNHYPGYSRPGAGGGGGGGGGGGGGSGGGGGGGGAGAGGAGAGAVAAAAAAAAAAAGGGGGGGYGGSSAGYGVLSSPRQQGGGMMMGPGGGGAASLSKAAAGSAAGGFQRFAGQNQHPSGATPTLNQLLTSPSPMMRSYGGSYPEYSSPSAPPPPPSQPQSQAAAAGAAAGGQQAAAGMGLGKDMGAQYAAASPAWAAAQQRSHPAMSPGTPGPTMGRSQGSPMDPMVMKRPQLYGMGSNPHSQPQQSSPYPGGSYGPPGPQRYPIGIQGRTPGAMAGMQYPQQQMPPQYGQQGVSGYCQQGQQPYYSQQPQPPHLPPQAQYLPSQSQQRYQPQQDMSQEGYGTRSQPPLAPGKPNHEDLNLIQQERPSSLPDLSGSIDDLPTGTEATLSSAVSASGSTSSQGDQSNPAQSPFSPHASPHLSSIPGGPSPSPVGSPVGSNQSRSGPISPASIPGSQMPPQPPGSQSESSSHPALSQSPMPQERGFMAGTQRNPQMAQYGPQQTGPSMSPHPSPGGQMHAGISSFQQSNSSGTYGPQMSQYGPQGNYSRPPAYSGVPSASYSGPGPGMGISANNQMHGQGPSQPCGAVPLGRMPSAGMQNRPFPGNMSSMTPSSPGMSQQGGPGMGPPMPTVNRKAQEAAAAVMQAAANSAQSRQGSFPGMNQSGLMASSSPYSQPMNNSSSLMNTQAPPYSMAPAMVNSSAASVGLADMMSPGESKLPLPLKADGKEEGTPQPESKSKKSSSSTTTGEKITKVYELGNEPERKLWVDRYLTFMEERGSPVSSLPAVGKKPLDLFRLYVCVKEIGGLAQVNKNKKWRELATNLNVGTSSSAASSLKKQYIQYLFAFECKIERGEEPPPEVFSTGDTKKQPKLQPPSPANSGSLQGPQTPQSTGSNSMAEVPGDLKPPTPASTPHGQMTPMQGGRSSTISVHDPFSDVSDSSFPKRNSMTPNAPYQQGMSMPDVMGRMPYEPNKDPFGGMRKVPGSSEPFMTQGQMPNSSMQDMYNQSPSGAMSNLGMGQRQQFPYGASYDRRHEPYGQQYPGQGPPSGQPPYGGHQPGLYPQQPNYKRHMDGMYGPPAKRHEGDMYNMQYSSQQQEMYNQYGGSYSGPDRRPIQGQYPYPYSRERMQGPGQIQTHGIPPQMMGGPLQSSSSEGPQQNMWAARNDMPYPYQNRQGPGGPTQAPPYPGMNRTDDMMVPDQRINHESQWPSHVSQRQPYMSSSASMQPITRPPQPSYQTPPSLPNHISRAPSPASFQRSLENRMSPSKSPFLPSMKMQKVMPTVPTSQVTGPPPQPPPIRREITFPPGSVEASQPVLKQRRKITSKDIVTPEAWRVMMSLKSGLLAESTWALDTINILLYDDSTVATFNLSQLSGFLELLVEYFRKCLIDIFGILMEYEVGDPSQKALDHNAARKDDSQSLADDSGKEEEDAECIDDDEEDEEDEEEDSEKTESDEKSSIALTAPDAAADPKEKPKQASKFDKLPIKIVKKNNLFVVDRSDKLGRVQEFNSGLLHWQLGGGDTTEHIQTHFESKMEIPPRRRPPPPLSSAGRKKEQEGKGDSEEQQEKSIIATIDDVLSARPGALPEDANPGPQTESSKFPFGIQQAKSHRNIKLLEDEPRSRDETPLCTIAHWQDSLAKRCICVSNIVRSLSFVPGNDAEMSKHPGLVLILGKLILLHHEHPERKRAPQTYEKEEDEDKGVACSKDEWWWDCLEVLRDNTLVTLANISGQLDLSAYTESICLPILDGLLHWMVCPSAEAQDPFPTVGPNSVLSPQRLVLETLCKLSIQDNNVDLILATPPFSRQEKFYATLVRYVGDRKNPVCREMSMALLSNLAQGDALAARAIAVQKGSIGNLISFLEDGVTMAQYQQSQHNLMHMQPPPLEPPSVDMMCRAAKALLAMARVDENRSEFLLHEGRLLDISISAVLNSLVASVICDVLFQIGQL

No constants are given. Whether binding was seen depends on the method and setting. In cells and extracts the contact can be indirect. Some results given as binding are weak or reduced against the parent protein; the word gives no strength.

The assay concerns the target ARID1B (human (endogenous in hiPSC-derived day 5 cells)) (UniProt Q8NFD5). As to the kind of experiment: co-IP; anti-ARID1B antibody on Protein A Dynabeads incubated with 100 ug nuclear extract of SALL4-WT cells at day 5, 3 h at 4°C; washed five times with Buffer C (400 mM NaCl); immunoblot for SALL4; IgG as negative control. A general note: A western blot detects proteins with antibodies after separation by electrophoresis.

Consider SALL4A (from UniProt Q9UJQ4-1 1-1053), for which the binding entry is recorded as “binds”.
